This is one part of the list.

Chains of the proteins cited; added tags and fusions are not shown. Lines headed by an entry give the natural chain unless they say otherwise; changes in a name come on top.
UniProt Q5QGZ9: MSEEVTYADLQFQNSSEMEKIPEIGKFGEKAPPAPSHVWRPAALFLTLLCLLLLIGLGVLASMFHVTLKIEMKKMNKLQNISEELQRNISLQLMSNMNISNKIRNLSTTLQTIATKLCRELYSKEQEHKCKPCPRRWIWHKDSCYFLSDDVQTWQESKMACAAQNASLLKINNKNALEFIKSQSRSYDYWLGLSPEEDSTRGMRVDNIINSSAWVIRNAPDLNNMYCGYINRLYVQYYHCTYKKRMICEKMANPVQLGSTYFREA
UniProt Q8TEP8: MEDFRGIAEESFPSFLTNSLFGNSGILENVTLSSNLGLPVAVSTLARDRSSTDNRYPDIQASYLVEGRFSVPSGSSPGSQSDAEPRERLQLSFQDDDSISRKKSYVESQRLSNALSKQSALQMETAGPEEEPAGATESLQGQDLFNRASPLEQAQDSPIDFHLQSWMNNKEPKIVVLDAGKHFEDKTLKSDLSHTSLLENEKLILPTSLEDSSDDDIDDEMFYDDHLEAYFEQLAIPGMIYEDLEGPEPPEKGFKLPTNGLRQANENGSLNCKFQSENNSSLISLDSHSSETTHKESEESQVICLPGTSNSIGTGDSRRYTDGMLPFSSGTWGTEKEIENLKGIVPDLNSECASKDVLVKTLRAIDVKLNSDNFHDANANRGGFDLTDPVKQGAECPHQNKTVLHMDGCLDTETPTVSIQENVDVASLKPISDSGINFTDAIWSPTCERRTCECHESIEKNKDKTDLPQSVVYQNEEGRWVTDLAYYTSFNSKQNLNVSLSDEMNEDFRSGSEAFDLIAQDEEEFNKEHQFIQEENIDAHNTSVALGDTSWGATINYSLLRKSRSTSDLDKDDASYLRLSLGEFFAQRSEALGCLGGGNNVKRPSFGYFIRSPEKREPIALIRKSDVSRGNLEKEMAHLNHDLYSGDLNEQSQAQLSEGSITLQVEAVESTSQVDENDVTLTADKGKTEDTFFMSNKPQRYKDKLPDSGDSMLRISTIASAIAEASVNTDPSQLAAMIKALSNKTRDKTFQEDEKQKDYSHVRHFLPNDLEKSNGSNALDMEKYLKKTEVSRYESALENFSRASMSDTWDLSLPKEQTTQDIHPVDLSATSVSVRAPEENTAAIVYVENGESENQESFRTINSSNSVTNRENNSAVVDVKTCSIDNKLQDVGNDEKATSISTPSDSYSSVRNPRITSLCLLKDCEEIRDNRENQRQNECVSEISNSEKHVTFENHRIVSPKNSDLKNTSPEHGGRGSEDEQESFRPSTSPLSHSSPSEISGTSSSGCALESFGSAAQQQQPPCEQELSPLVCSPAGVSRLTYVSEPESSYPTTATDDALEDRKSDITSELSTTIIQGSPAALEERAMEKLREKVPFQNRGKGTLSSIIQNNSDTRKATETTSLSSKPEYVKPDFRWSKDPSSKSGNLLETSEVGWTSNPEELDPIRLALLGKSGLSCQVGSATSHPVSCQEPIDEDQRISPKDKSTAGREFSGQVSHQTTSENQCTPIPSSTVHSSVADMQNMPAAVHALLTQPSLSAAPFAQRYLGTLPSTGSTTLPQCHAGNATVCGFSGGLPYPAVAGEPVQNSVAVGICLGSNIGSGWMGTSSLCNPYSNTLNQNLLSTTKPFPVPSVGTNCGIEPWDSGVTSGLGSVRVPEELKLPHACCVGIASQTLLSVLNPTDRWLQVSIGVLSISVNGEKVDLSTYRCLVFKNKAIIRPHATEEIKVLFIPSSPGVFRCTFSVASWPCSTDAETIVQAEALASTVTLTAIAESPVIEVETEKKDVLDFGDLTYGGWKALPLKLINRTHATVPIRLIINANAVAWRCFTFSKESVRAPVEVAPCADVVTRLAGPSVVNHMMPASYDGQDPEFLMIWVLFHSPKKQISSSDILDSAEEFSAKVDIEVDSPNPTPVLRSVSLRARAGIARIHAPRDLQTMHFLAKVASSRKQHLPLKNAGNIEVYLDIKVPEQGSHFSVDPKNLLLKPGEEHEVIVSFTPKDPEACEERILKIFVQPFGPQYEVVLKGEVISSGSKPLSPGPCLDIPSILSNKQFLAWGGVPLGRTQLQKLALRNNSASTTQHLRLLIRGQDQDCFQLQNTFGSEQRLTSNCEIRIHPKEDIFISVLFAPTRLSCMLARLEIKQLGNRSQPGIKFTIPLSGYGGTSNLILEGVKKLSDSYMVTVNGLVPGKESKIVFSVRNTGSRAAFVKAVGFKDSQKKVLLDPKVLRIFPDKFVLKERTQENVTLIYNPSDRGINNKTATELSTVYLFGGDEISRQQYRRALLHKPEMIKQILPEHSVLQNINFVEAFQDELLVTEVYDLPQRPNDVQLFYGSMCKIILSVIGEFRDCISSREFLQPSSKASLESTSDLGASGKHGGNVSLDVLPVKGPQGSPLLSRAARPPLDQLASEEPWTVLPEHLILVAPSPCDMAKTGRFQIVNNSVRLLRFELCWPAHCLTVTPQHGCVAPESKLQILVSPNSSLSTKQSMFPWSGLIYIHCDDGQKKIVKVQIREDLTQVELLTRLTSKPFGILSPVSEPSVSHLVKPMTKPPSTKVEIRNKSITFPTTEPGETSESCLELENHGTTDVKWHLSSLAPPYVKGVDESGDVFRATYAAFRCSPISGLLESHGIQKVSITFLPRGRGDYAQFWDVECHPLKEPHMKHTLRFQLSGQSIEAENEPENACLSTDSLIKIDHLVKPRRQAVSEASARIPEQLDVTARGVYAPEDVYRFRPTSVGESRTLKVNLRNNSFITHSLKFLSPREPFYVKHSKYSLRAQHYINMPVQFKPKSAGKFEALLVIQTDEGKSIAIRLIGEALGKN
UniProt Q96G28: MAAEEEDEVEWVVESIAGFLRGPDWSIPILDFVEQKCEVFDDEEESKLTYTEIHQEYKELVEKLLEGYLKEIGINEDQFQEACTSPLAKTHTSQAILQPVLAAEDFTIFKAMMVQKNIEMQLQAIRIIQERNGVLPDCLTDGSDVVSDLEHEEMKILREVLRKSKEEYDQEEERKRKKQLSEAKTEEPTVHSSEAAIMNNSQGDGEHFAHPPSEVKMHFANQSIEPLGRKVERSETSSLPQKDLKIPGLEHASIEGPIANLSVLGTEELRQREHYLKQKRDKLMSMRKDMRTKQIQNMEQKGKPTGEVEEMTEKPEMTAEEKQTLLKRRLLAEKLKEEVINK
UniProt Q7Z460: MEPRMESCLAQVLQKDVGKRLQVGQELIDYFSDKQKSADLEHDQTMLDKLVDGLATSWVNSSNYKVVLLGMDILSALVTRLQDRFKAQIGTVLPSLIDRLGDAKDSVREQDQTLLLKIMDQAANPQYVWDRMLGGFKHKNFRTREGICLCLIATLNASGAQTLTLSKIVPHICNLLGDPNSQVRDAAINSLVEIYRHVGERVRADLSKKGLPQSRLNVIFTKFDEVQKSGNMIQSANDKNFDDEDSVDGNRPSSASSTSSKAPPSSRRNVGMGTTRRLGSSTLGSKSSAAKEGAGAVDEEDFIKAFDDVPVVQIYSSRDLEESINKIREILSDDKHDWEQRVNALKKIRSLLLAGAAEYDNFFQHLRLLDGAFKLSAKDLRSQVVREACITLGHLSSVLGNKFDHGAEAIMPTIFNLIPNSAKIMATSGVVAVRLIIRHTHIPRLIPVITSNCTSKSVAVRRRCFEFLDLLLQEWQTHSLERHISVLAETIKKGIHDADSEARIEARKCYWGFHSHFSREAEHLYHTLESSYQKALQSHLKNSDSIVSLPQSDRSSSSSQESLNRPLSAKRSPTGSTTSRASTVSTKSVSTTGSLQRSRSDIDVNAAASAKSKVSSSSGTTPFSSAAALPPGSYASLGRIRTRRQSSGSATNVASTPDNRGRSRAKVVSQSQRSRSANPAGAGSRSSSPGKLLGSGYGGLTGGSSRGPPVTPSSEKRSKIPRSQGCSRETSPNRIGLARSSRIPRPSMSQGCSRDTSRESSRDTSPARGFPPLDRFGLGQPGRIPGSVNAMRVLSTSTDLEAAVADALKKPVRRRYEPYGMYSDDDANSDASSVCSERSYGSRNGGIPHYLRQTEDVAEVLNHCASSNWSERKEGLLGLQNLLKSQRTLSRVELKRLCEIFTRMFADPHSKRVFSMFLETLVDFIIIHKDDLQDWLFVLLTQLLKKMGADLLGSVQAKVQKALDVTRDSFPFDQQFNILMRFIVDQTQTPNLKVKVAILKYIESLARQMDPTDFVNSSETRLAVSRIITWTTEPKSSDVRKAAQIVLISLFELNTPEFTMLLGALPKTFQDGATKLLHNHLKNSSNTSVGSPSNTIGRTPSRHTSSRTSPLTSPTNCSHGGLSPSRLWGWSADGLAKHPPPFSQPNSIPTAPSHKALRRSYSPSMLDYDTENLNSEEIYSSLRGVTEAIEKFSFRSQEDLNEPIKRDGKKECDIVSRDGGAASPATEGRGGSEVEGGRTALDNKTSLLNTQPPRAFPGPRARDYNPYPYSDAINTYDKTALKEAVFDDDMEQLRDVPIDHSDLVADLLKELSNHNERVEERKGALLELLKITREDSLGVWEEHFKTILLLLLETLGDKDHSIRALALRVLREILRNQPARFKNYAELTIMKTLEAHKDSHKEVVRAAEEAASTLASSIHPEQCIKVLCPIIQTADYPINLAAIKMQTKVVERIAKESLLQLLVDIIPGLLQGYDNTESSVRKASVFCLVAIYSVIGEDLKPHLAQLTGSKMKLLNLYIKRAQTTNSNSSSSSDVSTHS
UniProt P41208: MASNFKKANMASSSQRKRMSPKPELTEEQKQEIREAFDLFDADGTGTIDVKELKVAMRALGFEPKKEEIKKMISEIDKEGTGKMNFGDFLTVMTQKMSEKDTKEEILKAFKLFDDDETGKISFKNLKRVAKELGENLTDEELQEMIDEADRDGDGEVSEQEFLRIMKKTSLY
UniProt Q9BRQ6: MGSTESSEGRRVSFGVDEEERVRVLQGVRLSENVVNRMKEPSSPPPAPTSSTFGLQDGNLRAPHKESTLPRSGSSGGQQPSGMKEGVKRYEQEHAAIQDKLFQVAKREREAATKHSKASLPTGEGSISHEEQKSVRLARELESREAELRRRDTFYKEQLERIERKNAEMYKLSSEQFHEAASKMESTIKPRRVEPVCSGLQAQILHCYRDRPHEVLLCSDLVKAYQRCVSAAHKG
UniProt Q96CT7: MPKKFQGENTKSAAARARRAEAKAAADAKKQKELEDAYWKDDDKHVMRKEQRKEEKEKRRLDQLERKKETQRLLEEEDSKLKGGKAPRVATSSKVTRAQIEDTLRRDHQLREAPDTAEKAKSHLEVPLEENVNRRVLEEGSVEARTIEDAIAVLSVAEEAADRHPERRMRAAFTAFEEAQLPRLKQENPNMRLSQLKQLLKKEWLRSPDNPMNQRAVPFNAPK
UniProt Q99674: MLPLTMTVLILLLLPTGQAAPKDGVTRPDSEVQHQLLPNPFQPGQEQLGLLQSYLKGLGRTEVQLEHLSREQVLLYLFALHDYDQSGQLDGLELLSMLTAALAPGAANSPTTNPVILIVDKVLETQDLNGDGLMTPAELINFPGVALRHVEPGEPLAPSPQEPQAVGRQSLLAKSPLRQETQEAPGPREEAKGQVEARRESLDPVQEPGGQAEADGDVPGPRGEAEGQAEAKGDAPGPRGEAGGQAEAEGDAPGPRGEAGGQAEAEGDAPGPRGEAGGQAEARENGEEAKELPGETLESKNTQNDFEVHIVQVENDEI
UniProt Q567U6, whole entry: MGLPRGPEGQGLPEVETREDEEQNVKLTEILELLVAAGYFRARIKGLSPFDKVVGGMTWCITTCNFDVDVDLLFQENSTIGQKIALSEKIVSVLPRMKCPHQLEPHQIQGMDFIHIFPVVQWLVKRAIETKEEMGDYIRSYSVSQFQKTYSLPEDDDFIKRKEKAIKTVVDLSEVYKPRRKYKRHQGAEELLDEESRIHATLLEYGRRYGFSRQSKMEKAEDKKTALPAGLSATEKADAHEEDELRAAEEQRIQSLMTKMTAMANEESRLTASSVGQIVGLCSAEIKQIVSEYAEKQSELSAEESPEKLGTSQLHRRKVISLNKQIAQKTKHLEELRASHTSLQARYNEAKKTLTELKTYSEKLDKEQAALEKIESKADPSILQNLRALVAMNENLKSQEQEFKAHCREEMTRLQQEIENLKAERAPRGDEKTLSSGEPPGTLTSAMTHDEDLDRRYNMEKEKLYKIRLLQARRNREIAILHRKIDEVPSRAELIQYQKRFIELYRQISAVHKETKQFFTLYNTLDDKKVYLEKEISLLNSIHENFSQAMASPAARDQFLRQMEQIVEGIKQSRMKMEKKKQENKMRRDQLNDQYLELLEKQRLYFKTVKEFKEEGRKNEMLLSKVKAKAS
UniProt Q9NZ45: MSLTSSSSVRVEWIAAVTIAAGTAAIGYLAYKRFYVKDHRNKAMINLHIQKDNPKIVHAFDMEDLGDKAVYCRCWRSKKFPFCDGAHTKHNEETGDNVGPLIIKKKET
UniProt Q9H444: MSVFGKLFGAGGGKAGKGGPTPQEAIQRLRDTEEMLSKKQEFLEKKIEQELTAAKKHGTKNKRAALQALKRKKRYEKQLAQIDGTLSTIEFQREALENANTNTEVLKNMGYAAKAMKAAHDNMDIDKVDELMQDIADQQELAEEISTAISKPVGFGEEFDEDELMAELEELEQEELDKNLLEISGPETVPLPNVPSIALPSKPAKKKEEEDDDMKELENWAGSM

Compound in this assay: COc1ccc(Cn2ccc3ccc(C(=O)NO)cc32)cc1
Kind of assay: dose-dependent thermal stabilisation call (2D-TPP, DLPTP, 10% FDR) (binary (1 = stabilised)); higher = stabilised by the compound. As to conditions: system: HL-60 intact cells; concentration range 0.04-10 µM.
Turning to CLEC12A (UniProt Q5QGZ9), the “dose-dependent thermal stabilisation call” value was inactive: 0.

As for CCPG1 (UniProt Q9ULG6), the “dose-dependent thermal stabilisation call” value is active: 1.

For CCNA2 (UniProt P20248), the “dose-dependent thermal stabilisation call” value is inactive: 0.

Consider CIT (UniProt O14578), for which the “dose-dependent thermal stabilisation call” value is inactive: 0.

For the target CD2BP2 (UniProt O95400), the “dose-dependent thermal stabilisation call” value was inactive: 0.

With CD59 (UniProt P13987), the “dose-dependent thermal stabilisation call” value is inactive: 0.

With CNOT4 (UniProt O95628), the “dose-dependent thermal stabilisation call” value was inactive: 0.

With CDC37 (UniProt Q16543), the “dose-dependent thermal stabilisation call” value is inactive: 0.

CEP192 (UniProt Q8TEP8): the “dose-dependent thermal stabilisation call” value was inactive: 0.

In the case of CLCN5 (UniProt P51795), the “dose-dependent thermal stabilisation call” value is inactive: 0.

Turning to CLSPN (UniProt Q9HAW4), the “dose-dependent thermal stabilisation call” value is inactive: 0.

Turning to CCDC104 (UniProt Q96G28), the “dose-dependent thermal stabilisation call” value is inactive: 0.

As to CLASP1 (UniProt Q7Z460), the “dose-dependent thermal stabilisation call” value was inactive: 0.

Take CMPK1 (UniProt P30085): the “dose-dependent thermal stabilisation call” value is inactive: 0.

For the target CETN2 (UniProt P41208), the “dose-dependent thermal stabilisation call” value was inactive: 0.

With CHCHD6 (UniProt Q9BRQ6), the “dose-dependent thermal stabilisation call” value was inactive: 0.

In the case of CDK5RAP2 (UniProt Q96SN8), the “dose-dependent thermal stabilisation call” value was inactive: 0.

Turning to CLYBL (UniProt Q8N0X4), the “dose-dependent thermal stabilisation call” value was inactive: 0.

As for CDC42BPA (UniProt Q5VT25), the “dose-dependent thermal stabilisation call” value is inactive: 0.

With CCDC124 (UniProt Q96CT7), the “dose-dependent thermal stabilisation call” value is inactive: 0.

With CHMP7 (UniProt Q8WUX9), the “dose-dependent thermal stabilisation call” value was inactive: 0.

For the target CD97 (UniProt P48960), the “dose-dependent thermal stabilisation call” value is inactive: 0.

Take CNOT1 (UniProt A5YKK6): the “dose-dependent thermal stabilisation call” value was inactive: 0.

With CCDC137 (UniProt Q6PK04), the “dose-dependent thermal stabilisation call” value is inactive: 0.

Turning to CDK4 (UniProt P11802), the “dose-dependent thermal stabilisation call” value was inactive: 0.

Turning to CHMP2A (UniProt O43633), the “dose-dependent thermal stabilisation call” value is inactive: 0.

As for CGREF1 (UniProt Q99674), the “dose-dependent thermal stabilisation call” value was inactive: 0.

CEP135 (UniProt Q66GS9): the “dose-dependent thermal stabilisation call” value is inactive: 0.

Consider CCDC93 (UniProt Q567U6), for which the “dose-dependent thermal stabilisation call” value was active: 1.

Regarding CHCHD2 (UniProt Q9Y6H1), the “dose-dependent thermal stabilisation call” value is inactive: 0.

With CISD1 (UniProt Q9NZ45), the “dose-dependent thermal stabilisation call” value is inactive: 0.

For the target CENPC1 (UniProt Q03188), the “dose-dependent thermal stabilisation call” value was inactive: 0.

For the target CHEK1 (UniProt O14757), the “dose-dependent thermal stabilisation call” value was inactive: 0.

Regarding CHMP4B (UniProt Q9H444), the “dose-dependent thermal stabilisation call” value was inactive: 0.

As to CCNDBP1 (UniProt O95273), the “dose-dependent thermal stabilisation call” value is inactive: 0.

For CEP97 (UniProt Q8IW35), the “dose-dependent thermal stabilisation call” value is inactive: 0.

CCDC51 (UniProt Q96ER9): the “dose-dependent thermal stabilisation call” value was inactive: 0.

With CD320 (UniProt Q9NPF0), the “dose-dependent thermal stabilisation call” value was inactive: 0.
